Assay results: PubChem BioAssay AID540256 (National Center for Advancing Translational Sciences (NCATS), 2011)
The campaign covered roughly 300,000 compounds. About 3,700 (1.2%) were called active. Inconclusive means that the source gave no clear call. Such entries were picked first, then a sample of the others. Calls come from the whole dose curve; tested in HEK293 cells. Potencies of inconclusive entries are doubtful fits and often do not repeat.

experiment: qHTS for Inhibitors of binding or entry into cells for Lassa Virus; conditions: Lassa virus pseudotype entry inhibition, cell reporter; activity change, negative = inhibition: at 37.9 µM (top of the series) unless noted; note: nearly all actives have a fitted effect of over 50% in size
% is set by controls: 0 for no effect and ±100 for the full control effect; potency is the fitted concentration of half-maximal effect.

Row | SMILES | Potency | activity change, negative = inhibition
1 | CC(C)NC(=S)N=Nc1c(O)[nH]c2ccc([N+](=O)[O-])cc12 | inconclusive: 22.4 µM [inhibitor, single point] | –
2 | COc1ccccc1CN(C)C(=O)c1cc(-c2cc(OC)c(OC)c(OC)c2)nc2ccccc12 | inconclusive: 14.1 µM [inhibitor, partial curve, poor fit] | –
3 | O=C(NCCC1=CCCCC1)C1CCN(S(=O)(=O)c2ccccc2)CC1 | – | inactive: -0.531% [at 46.1 µM]
4 | CCN(CC)c1ccc(NC(=S)Nc2ccc(F)cc2)cc1 | – | inactive: -9.59%
5 | O=C(NCc1ccc(Cl)cc1)C(=O)NCC(c1cccnc1)N1CCN(c2ccccc2)CC1 (stereo not given) | inconclusive: 35.5 µM [inhibitor, single point] | –
6 | COC(=O)c1cc(NC(=O)CSc2nc(C)cc(=O)[nH]2)cc(C(=O)OC)c1 | inconclusive: 29.1 µM [activator, single point] | –
7 | CCCCSc1ncnc2c1ncn2C1CCCCO1 (stereo not given) | inconclusive: 22.4 µM [inhibitor, single point] | –
8 | O=C(NC1CCCCC1)c1ccc(-c2ccccc2F)o1 | inconclusive: 8.91 µM [inhibitor, partial curve, poor fit] | –
9 | CCOC(=O)NC(NCc1ccccc1)(C(F)(F)F)C(F)(F)F | inconclusive: 2.82 µM [inhibitor, single point] | –
10 | CCOc1ccc(-c2csc(NC(=O)CSC3=NC(=O)CN3C(C)=O)n2)c2ccccc12 | inconclusive: 22.4 µM [inhibitor, single point] | –
11 | Cc1ccc2c(c1)c1c3n2CCN(CCC(=O)O)C3CCC1 (stereo not given) | – | inactive: 23%
12 | CC(=O)c1c(C)nc2ccc(Br)cc2c1-c1ccccc1 | inconclusive: 7.08 µM [inhibitor, partial curve] | –
13 | CCOCCCn1c(SCC(=O)Nc2ccccc2)nc2ccccc2c1=O | inconclusive: 17.8 µM [inhibitor, single point] | –
14 | CCCOc1ccc(/C=N/NC(=O)CSc2ccccn2)cc1OC | – | inactive: 7.95% [at 46.1 µM]
15 | COc1ccc(-c2cnnc(N/N=C/c3ccc(O)c(OC)c3)n2)cc1 | active: 5.8 µM | –
16 | Cc1cc(C=C2C(=O)c3ccccc3C2=O)c(C)n1-c1ccccc1 | inconclusive: 14.6 µM [inhibitor, partial curve, poor fit] | –
17 | CCN1CCN(CCC(=O)Nc2ccc(Br)cc2)CC1 | – | inactive: 19.8% [at 46.1 µM]
18 | CC1CCc2[nH]c3ccc(C(=O)N(C)CC(=O)Nc4cccc(F)c4)cc3c2C1 (stereo not given) | inconclusive: 35.5 µM [inhibitor, single point] | –
19 | CCCn1c(SCC#N)nc2c(c1=O)C1(CCCC1)Cc1ccccc1-2 | inconclusive: 28.2 µM [inhibitor, single point] | –
20 | CCN(C(=O)CSc1nc2ccccc2c(=O)n1-c1ccc(C)cc1)C1CCS(=O)(=O)C1 (stereo not given) | inconclusive: 12.6 µM [inhibitor, single point] | –
21 | O=C(CSc1n[nH]c(-c2ccccc2)n1)NC(=O)NCc1ccco1 | inconclusive: 6.31 µM [inhibitor, single point] | –
22 | Cc1noc(NS(=O)(=O)c2ccc(NC(=O)COc3ccccc3Br)cc2)c1C | inconclusive: 0.631 µM [inhibitor, full curve, poor fit] | –
23 | CN(C)c1ccc(C(=O)NCc2ccc3c(c2)OCO3)cc1 | – | inactive: -10.5%
24 | COc1cc(Cl)c(C)cc1NC(=O)Cn1cnc2sc(C)c(S(=O)(=O)N3CCCCC3)c2c1=O | – | inactive: -1.37% [at 46.1 µM]

As entered above:
Value for CCOC(=O)NC(NCc1ccccc1)(C(F)(F)F)C(F)(F)F under Potency: inconclusive: 2.82 µM [inhibitor, single point]
Value for COc1ccccc1CN(C)C(=O)c1cc(-c2cc(OC)c(OC)c(OC)c2)nc2ccccc12 under Potency: inconclusive: 14.1 µM [inhibitor, partial curve, poor fit]
Value for O=C(NC1CCCCC1)c1ccc(-c2ccccc2F)o1 under Potency: inconclusive: 8.91 µM [inhibitor, partial curve, poor fit]

(more compounds)

Row | SMILES | Potency | activity change, negative = inhibition
25 | O=C(NCCCN1CCOCC1)c1ccc(S(=O)(=O)Nc2ccccc2F)cc1 | – | inconclusive: 0.126% [activator]
26 | COc1cccc(-c2nn(C)c3sc(C(=O)N4CCN(c5cccc(C(F)(F)F)c5)CC4)cc23)c1 | – | inactive: -27% [at 46.1 µM]
27 | COc1ccccc1N(CC(=O)NCCSc1ccccc1)S(=O)(=O)c1ccc(C)cc1 | inconclusive: 20 µM [inhibitor, partial curve, poor fit] | –
28 | CN1CCN(CC(=O)N2CCn3c4c(c5cc(C6CCCCC6)ccc53)CCCC42)CC1 (stereo not given) | inconclusive: 35.5 µM [inhibitor, single point] | –
29 | CC(C)C(=O)N/N=C/c1ccc(OCc2ccccc2)cc1 | – | inactive: -19.1%
30 | CCC(=O)c1ccc(OCC(O)CN(CCc2ccccc2)Cc2ccccc2)cc1 (stereo not given) | active: 16.4 µM | –
31 | Cc1cccc(C)c1NC(=O)CN(C)CC(=O)Nc1ccccc1Oc1ccccc1 | inconclusive: 11.2 µM [inhibitor, partial curve, poor fit] | –
32 | NC(=O)c1ccccc1NC(=O)CCc1ccccc1 | inconclusive: 0.0046 µM [activator, full curve, poor fit] | –
33 | O=C(CCC1N=C2c3ccccc3N=C(SCc3cccc(Cl)c3)N2C1=O)NCc1ccco1 (stereo not given) | inconclusive: 25.9 µM [inhibitor, partial curve, poor fit] | –
34 | N#CCCN | inconclusive: 1.46 µM [activator, full curve, poor fit] | –
35 | Cc1ccc(CNC(=O)CCN2C(=O)C(C)Oc3ccc(C)cc32)cc1 (stereo not given) | – | inactive: 11.5% [at 46.1 µM]
36 | O=C(OCC(=O)N1CCCC1)c1cc(Cl)ccc1[N+](=O)[O-] | – | inactive: 1.04%
37 | Cc1cccc(COc2ccc(-c3cc(C(F)(F)F)n4nc(C)cc4n3)cc2)c1 | – | inactive: 8.03% [at 46.1 µM]
38 | CN(C)c1ccc(NC(=O)/C=C/c2c(Cl)cccc2Cl)cc1 | inconclusive: 35.5 µM [inhibitor, single point] | –
39 | Cc1ccc(NC(=O)c2ccc(Cl)c(S(=O)(=O)N3CCc4ccccc43)c2)nc1 | inconclusive: 7.08 µM [inhibitor, full curve, poor fit] | –
40 | COc1ccc(C(=O)OCC(=O)c2ccc3c(c2)NC(=O)CO3)cc1[N+](=O)[O-] | inconclusive: 1.26 µM [inhibitor, single point] | –
41 | NNCCc1ccccc1 | inconclusive: 0.58 µM [activator, full curve] | –
42 | O=C1/C(=C/c2ccc(F)cc2)Oc2cc(OC(=O)N3CCOCC3)ccc21 | – | inactive: 5.29%
43 | CCOc1ccc(-c2nnn(CC(=O)NCc3ccccc3)n2)cc1 | inconclusive: 5.01 µM [inhibitor, full curve, poor fit] | –
44 | Cc1nc(Sc2nnnn2C)c2c3c(sc2n1)CCC3 | inconclusive: 3.98 µM [inhibitor, full curve] | –
45 | CCOC(=O)N1CCC(N(CCCOC)C(=O)Nc2cccc(OC)c2)CC1 | – | inactive: 2.3%
46 | CC1CCc2c(sc3nnn(CC(=O)Nc4ccccc4Cl)c(=O)c23)C1 (stereo not given) | – | inactive: 1.48% [at 46.1 µM]
47 | CCOC(=O)c1cnn(-c2cccc(Cl)c2)c1C1CCN(C(=O)OC(C)(C)C)CC1 | inconclusive: 3.55 µM [inhibitor, partial curve, poor fit] | –
48 | COc1ccc(Cl)cc1NC(=O)N1CCC2(CC1)Oc1ccccc1C(=O)N2Cc1ccc(F)cc1 | – | inactive: 2.25% [at 46.1 µM]

Row | SMILES | Potency | activity change, negative = inhibition
49 | CSc1nc2sc3c(c2c(=O)n1-c1ccc(C)cc1)CCCC3 | – | inactive: -8.45% [at 46.1 µM]
50 | O=C(N/N=C/c1ccccc1F)c1ccc(COc2ccccc2Cl)o1 | inconclusive: 6.31 µM [inhibitor, partial curve, poor fit] | –
51 | Cc1nn(CC(=O)c2ccc(Cl)s2)c(C)c1[N+](=O)[O-] | – | inactive: -7.72%
52 | Clc1ccc2c(NCc3ccccc3)ccnc2c1 | inconclusive: 22.4 µM [inhibitor, partial curve, poor fit] | –
53 | COC(=O)C1=CN(c2ccc(OC)cc2)C=C(C(=O)OC)C1c1ccc(C)c([N+](=O)[O-])c1 | inconclusive: 0.631 µM [inhibitor, full curve] | –
54 | CCN1CCN(CC(=O)Nc2cc(C)c(C)cc2[N+](=O)[O-])CC1 | inconclusive: 0.411 µM [inhibitor, full curve, poor fit] | –
55 | Cc1cc(C)c2nc(NNC(=O)c3ccc(S(=O)(=O)N4CC(C)CC(C)C4)cc3)sc2c1 (stereo not given) | inconclusive: 29.1 µM [inhibitor, single point] | –
56 | CC(=O)OC(CC(=O)O)C[N+](C)(C)C (stereo not given) | inconclusive: 29.1 µM [inhibitor, single point] | –
57 | CC(C)c1ccc(-c2nc(N3CCCC3)nc3n[nH]c(N)c23)cc1 | inconclusive: 2.31 µM [inhibitor, partial curve] | –
58 | C=CCOCCN(C)C1=NS(=O)(=O)c2cc([N+](=O)[O-])ccc21 | inconclusive: 35.5 µM [inhibitor, single point] | –
59 | COc1ccc(S(=O)(=O)NCc2ccco2)cc1N(C)S(=O)(=O)c1ccccc1 | – | inactive: -29.8%
60 | COc1ccc2nc(NC3=NCCN3)sc2c1 | – | inactive: -25.4%
61 | COc1ccc(/C=N/n2cnnc2SCc2ccccc2)cc1 | inconclusive: 7.94 µM [inhibitor, partial curve, poor fit] | –
62 | COc1ccc(CNc2nc(-c3ccccc3)nn2C(=O)c2ccccc2OC)cc1 | inconclusive: 3.16 µM [activator, single point] | –
63 | COc1ccc(CNC(=O)c2cc(-c3cc(C)ccc3O)n[nH]2)cc1 | inconclusive: 3.98 µM [inhibitor, full curve, poor fit] | –
64 | Cc1cccc(N=C2NN=C(c3c(C)[nH]c4ccccc34)CS2)c1 | inconclusive: 35.5 µM [inhibitor, single point] | –
65 | COc1ccc(/C=C2/SC(=S)N(CCCC(=O)Nc3ccccc3C(=O)O)C2=O)cc1 | active: 2.82 µM | –
66 | O=C(CC(=O)N/N=C/c1ccccc1O)NCc1cccnc1 | inconclusive: 25.1 µM [inhibitor, single point] | –
67 | CCOc1cc(/C=N/NC(=O)C(C)Sc2ccccn2)ccc1O (stereo not given) | inconclusive: 35.5 µM [inhibitor, single point] | –
68 | O=C(CCSCc1ccccc1Cl)NCCc1ccccc1 | – | inactive: 12.3% [at 46.1 µM]
69 | CCOc1ccc(-c2c(C)nn3c(C)c(C(=O)NC(C)c4ccccc4)cnc23)cc1OCC (stereo not given) | – | inactive: -12.7% [at 46.1 µM]
70 | CNc1ccccc1-n1ccc(-c2ccccc2)n1 | inconclusive: 0.146 µM [activator, partial curve, poor fit] | –
